{
  "source": "PubChem BioAssay AID2685",
  "about": "(National Center for Advancing Translational Sciences (NCATS), 2010)",
  "experiment": "qHTS Assay for Lipid Storage Modulators in Drosophila S3 Cells;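 as to cell number change: cells counted by Cell Tracker Red CMTPX staining in the red channel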",
  "details": "BODIPY lipid droplet fluorescence, 18-24 h; for cell number change: measured here: cell count max response, cells fed with added oleic acid",
  "how_it_was_run": "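Drosophila S3 cells loaded with oleic acid (400 uM, as added) and compounds at several concentrations; lipid droplets imaged by 488-nm laser-scanning cytometry, 500–530 nm intensity and object ratio to cell channel. Percent activity normalized to 20 uM Triacsin C.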",
  "key": {"[1]": {"details": "measured here: cell number channel AC50, cells fed with added oleic acid"}, "[2]": {"details": "measured here: lipid fluorescence (Fed channel) AC50, cells fed with added oleic acid"}},
  "note": "The list shows a part of the results. Further columns of the screen follow, without active or inactive calls. The list favours compounds with an active or inconclusive main result. Words in brackets tell the shape of the fitted curve; partial curves, single points and poor fits give uncertain potencies.",
  "data": [
    {"smiles": "COc1ccc(OC)c(-n2c(-c3ccccc3)n[nH]c2=S)c1", "values": [
      {"measurement": "cell number change", "value": 15.6, "unit": "%"}
    ]},
    {"smiles": "CC1CCN(S(=O)(=O)c2ccc(C(=O)Nc3nnc(-c4ccncc4)o3)cc2)CC1", "values": [
      {"measurement": "cell number change", "value": 15.3, "unit": "%"},
      {"measurement": "AC50", "setting": "[1]", "value": "3.66 µM [rising, partial curve]"}
    ]},
    {"smiles": "Cc1cc(OCC(=O)OCC(=O)N2CCc3ccccc32)ccc1Cl", "values": [
      {"measurement": "cell number change", "value": -14.2, "unit": "%"}
    ]},
    {"smiles": "Cc1sc(NC(=O)CCC(=O)O)c(C#N)c1C", "values": [
      {"measurement": "cell number change", "value": -3.09, "unit": "%"},
      {"measurement": "AC50", "setting": "[1]", "value": "0.58 µM [falling, single point]"},
      {"measurement": "AC50", "setting": "[2]", "value": "0.517 µM [falling, partial curve, poor fit]"}
    ]},
    {"smiles": "Cc1cccc(OCCC(=O)Nc2ccc(S(=O)(=O)N3CCCC3)cc2)c1", "values": [
      {"measurement": "cell number change", "value": -35.7, "unit": "%"},
      {"measurement": "AC50", "setting": "[1]", "value": "23.1 µM [falling, single point]"},
      {"measurement": "AC50", "setting": "[2]", "value": "23.1 µM [falling, partial curve, poor fit]"}
    ]},
    {"smiles": "O=S(=O)(c1ccc(Cl)cc1)c1nc(-c2ccccc2F)oc1NCCN1CCOCC1", "values": [
      {"measurement": "cell number change", "value": -5.2, "unit": "%"},
      {"measurement": "AC50", "setting": "[2]", "value": "29.1 µM [rising, single point]"}
    ]},
    {"smiles": "COc1ccc(CCNC(=O)Cn2nnc(-c3cccc(OC)c3OC)n2)cc1OC", "values": [
      {"measurement": "cell number change", "value": -14.2, "unit": "%"}
    ]},
    {"smiles": "COc1ccc(F)cc1S(=O)(=O)NCC(c1ccco1)N1CCc2ccccc2C1", "note": "(centres undefined)", "values": [
      {"measurement": "cell number change", "value": 21.2, "unit": "%"}
    ]},
    {"smiles": "COc1ccc(OCCSc2ncccn2)cc1", "values": [
      {"measurement": "AC50", "setting": "[2]", "value": "6.51 µM [falling, partial curve]"}
    ]},
    {"smiles": "C#CC[N+](C)(C)CCN1C(=O)C2C(c3ccccc3)C=CC(c3ccccc3)C2C1=O", "note": "(centres undefined)", "values": [
      {"measurement": "AC50", "setting": "[2]", "value": "0.651 µM [rising, single point]"}
    ]},
    {"smiles": "COc1ccc(CCNC(=O)CNC(=O)c2ccco2)cc1", "values": [
      {"measurement": "cell number change", "value": 5.86, "unit": "%"},
      {"measurement": "AC50", "setting": "[2]", "value": "0.164 µM [rising, full curve, poor fit]"}
    ]},
    {"smiles": "O=C(NCc1ccco1)/C(=C/c1cccc([N+](=O)[O-])c1)NC(=O)c1ccco1", "values": [
      {"measurement": "cell number change", "value": 25, "unit": "%"},
      {"measurement": "AC50", "setting": "[2]", "value": "16.4 µM [rising, partial curve]"}
    ]},
    {"smiles": "O=C(Cc1cccs1)Nc1ccc([N+](=O)[O-])cc1", "values": [
      {"measurement": "cell number change", "value": -26.4, "unit": "%"},
      {"measurement": "AC50", "setting": "[2]", "value": "29.1 µM [rising, single point]"}
    ]},
    {"smiles": "CCOC(=O)C1(CCOC)CCN(Cc2cc3ccccc3s2)CC1", "values": [
      {"measurement": "cell number change", "value": 5.84, "unit": "%"},
      {"measurement": "AC50", "setting": "[2]", "value": "29.1 µM [rising, single point]"}
    ]},
    {"smiles": "O=S(=O)(c1cccs1)N1CCN(c2ccnc3cc(Cl)ccc23)CC1", "values": [
      {"measurement": "cell number change", "value": 17.3, "unit": "%"},
      {"measurement": "AC50", "setting": "[1]", "value": "0.411 µM [rising, full curve, poor fit]"}
    ]},
    {"smiles": "CCOc1cc(C(=O)OCC(=O)NCc2ccco2)cc(OCC)c1OCC", "values": [
      {"measurement": "cell number change", "value": -18.3, "unit": "%"}
    ]},
    {"smiles": "CC(=O)c1ccccc1N(C(=O)Cn1nnc2ccccc21)C(C(=O)NCC1CCCO1)c1ccc(N2CCOCC2)cc1", "note": "(centres undefined)", "values": [
      {"measurement": "cell number change", "value": -37.3, "unit": "%"},
      {"measurement": "AC50", "setting": "[1]", "value": "14.6 µM [falling, partial curve, poor fit]"},
      {"measurement": "AC50", "setting": "[2]", "value": "8.2 µM [falling, partial curve]"}
    ]},
    {"smiles": "O=Cc1cc(-c2ccccc2)[nH]c1-c1ccccc1", "values": [
      {"measurement": "cell number change", "value": 14.7, "unit": "%"}
    ]},
    {"smiles": "COc1cccc(/C=N/n2c(N)c(S(=O)(=O)c3cccs3)c3nc4ccccc4nc32)c1OC", "values": [
      {"measurement": "cell number change", "value": 4.03, "unit": "%"},
      {"measurement": "AC50", "setting": "[1]", "value": "6.51 µM [falling, single point]"},
      {"measurement": "AC50", "setting": "[2]", "value": "1.64 µM [falling, full curve]"}
    ]},
    {"smiles": "CC1CCN(c2ccc(C(=O)Nc3nnc(C4CC4)s3)cc2[N+](=O)[O-])CC1", "values": [
      {"measurement": "cell number change", "value": -64.6, "unit": "%"},
      {"measurement": "AC50", "setting": "[1]", "value": "25.9 µM [falling, partial curve, poor fit]"}
    ]},
    {"smiles": "CCc1ccc(NC(=O)c2ccccc2NC(=O)C2CCCO2)cc1", "note": "(centres undefined)", "values": [
      {"measurement": "cell number change", "value": 68.3, "unit": "%"},
      {"measurement": "AC50", "setting": "[1]", "value": "1.3 µM [rising, full curve]"},
      {"measurement": "AC50", "setting": "[2]", "value": "2.31 µM [rising, full curve]"}
    ]},
    {"smiles": "Cc1cc(C)c(C)c(S(=O)(=O)Nc2ccccc2C(=O)O)c1C", "values": [
      {"measurement": "cell number change", "value": -69.4, "unit": "%"},
      {"measurement": "AC50", "setting": "[1]", "value": "4.61 µM [falling, full curve]"},
      {"measurement": "AC50", "setting": "[2]", "value": "3.66 µM [falling, full curve]"}
    ]},
    {"smiles": "Cc1c(NC(=O)CSc2ncn[nH]2)c(=O)n(-c2ccccc2)n1C", "values": [
      {"measurement": "cell number change", "value": 41.2, "unit": "%"},
      {"measurement": "AC50", "setting": "[1]", "value": "14.6 µM [rising, partial curve, poor fit]"},
      {"measurement": "AC50", "setting": "[2]", "value": "2.31 µM [rising, partial curve, poor fit]"}
    ]},
    {"smiles": "Cc1ccc(Cl)c2c1NC(=O)C2(O)CC(=O)c1ccc(Br)cc1", "note": "(centres undefined)", "values": [
      {"measurement": "cell number change", "value": -36.9, "unit": "%"}
    ]},
    {"smiles": "CN1CCN(C(=S)NC(=O)/C=C/c2cccc3ccccc23)CC1", "values": [
      {"measurement": "cell number change", "value": -3, "unit": "%"}
    ]},
    {"smiles": "O=C(CCCn1cnc([N+](=O)[O-])n1)Nc1cccc2ccccc12", "values": [
      {"measurement": "cell number change", "value": -30.3, "unit": "%"},
      {"measurement": "AC50", "setting": "[1]", "value": "7.31 µM [falling, partial curve]"},
      {"measurement": "AC50", "setting": "[2]", "value": "0.58 µM [falling, full curve, poor fit]"}
    ]},
    {"smiles": "O=S(=O)(NCCc1ccccc1)c1ccc(S(=O)(=O)N2CCCCC2)cc1", "values": [
      {"measurement": "cell number change", "value": 5.73, "unit": "%"},
      {"measurement": "AC50", "setting": "[2]", "value": "0.103 µM [falling, full curve, poor fit]"}
    ]},
    {"smiles": "CS(=O)(=O)c1ccc(Cl)c(NC(=O)CN2CCCC2c2ccc3c(c2)OCCCO3)c1", "note": "(centres undefined)", "values": [
      {"measurement": "cell number change", "value": 30.2, "unit": "%"},
      {"measurement": "AC50", "setting": "[1]", "value": "20.6 µM [rising, single point]"},
      {"measurement": "AC50", "setting": "[2]", "value": "25.9 µM [rising, single point]"}
    ]},
    {"smiles": "CCN(CC(=O)Nc1c(F)cccc1F)C(=O)c1nc2nc(C)cc(C)n2n1", "values": [
      {"measurement": "cell number change", "value": -2.14, "unit": "%"},
      {"measurement": "AC50", "setting": "[2]", "value": "0.092 µM [falling, full curve, poor fit]"}
    ]},
    {"smiles": "COc1ccc(CCNC(=O)COC(=O)COc2c(C)cc(C)cc2C)cc1OC", "values": [
      {"measurement": "cell number change", "value": -5.25, "unit": "%"},
      {"measurement": "AC50", "setting": "[2]", "value": "4.11 µM [falling, partial curve]"}
    ]},
    {"smiles": "Cc1ccc(C)c(NC(=O)c2ccc3ccccc3n2)c1", "values": [
      {"measurement": "cell number change", "value": 136, "unit": "%"},
      {"measurement": "AC50", "setting": "[1]", "value": "0.366 µM [rising, full curve]"},
      {"measurement": "AC50", "setting": "[2]", "value": "0.411 µM [rising, full curve]"}
    ]},
    {"smiles": "CCNC(=S)N(CCN(CC)CC)Cc1cc2cc3c(cc2[nH]c1=O)OCO3", "values": [
      {"measurement": "cell number change", "value": 36.5, "unit": "%"},
      {"measurement": "AC50", "setting": "[1]", "value": "32.6 µM [rising, partial curve, poor fit]"},
      {"measurement": "AC50", "setting": "[2]", "value": "6.51 µM [rising, single point]"}
    ]},
    {"smiles": "COc1cc(CNc2ccc(CNc3ncn[nH]3)cc2)ccc1OCc1ccccc1", "values": [
      {"measurement": "cell number change", "value": -30.9, "unit": "%"},
      {"measurement": "AC50", "setting": "[1]", "value": "16.4 µM [falling, single point]"}
    ]},
    {"smiles": "COc1cc(N=C2C(=O)N3c4c(cccc42)C(C)=CC3(C)C)cc(OC)c1", "values": [
      {"measurement": "cell number change", "value": -11.7, "unit": "%"},
      {"measurement": "AC50", "setting": "[2]", "value": "29.1 µM [falling, single point]"}
    ]},
    {"smiles": "O=C(NC(=S)NC1CCCCCC1)c1cncc(Br)c1", "values": [
      {"measurement": "cell number change", "value": 19.2, "unit": "%"},
      {"measurement": "AC50", "setting": "[2]", "value": "5.8 µM [rising, full curve]"}
    ]},
    {"smiles": "CC(=O)c1cccc(NC(=O)COC(=O)COc2ccc(Cl)cc2)c1", "values": [
      {"measurement": "cell number change", "value": 20.5, "unit": "%"},
      {"measurement": "AC50", "setting": "[2]", "value": "0.082 µM [rising, full curve, poor fit]"}
    ]},
    {"smiles": "COCCN(C(=O)COC(=O)c1ccc(Cl)s1)c1c(N)n(Cc2ccccc2)c(=O)[nH]c1=O", "values": [
      {"measurement": "cell number change", "value": 2.56, "unit": "%"}
    ]}
  ]
}
